Drawing on PMC9859039, “The conserved centrosomin motif, γTuNA, forms a dimer that directly activates microtubule nucleation by the γ-tubulin ring complex (γTuRC)” (eLife, 2022), this text covers binding for two molecules.

No constants are given. Whether binding was seen depends on the method and setting. Where a sequence is shown, tags or fusion partners need not be part of it.

Assay [1] concerns the target Strep-His-TEV-HaloTag-3C-human γTuNA I67D/L70D (human). In words: SEC; Superdex 200 increase 10/300 GL, ~50 µM (monomer), CSFxB with 6 mM BME without sucrose, 4 °C, 0.7 mL/min; peak retention volumes compared; both purified. (In general: Size exclusion chromatography separates by hydrodynamic size, large species first.)
The target in assay [2] is Strep-His-TEV-HaloTag-3C-human γTuNA I67A/L70A (human). The description is as above.

For the molecule SPTRARNMKDFENQDTEDKKENFNLKLRIYFLEERMQQEFHGPTEH (domain or fragment) [Strep-His-TEV-HaloTag-3C-human γTuNA I67D/L70D], the binding entry in assay [1] is on record as “no binding (tested: 50 µM (monomer))”.

Turning to SPTRARNMKDFENQATEAKKENFNLKLRIYFLEERMQQEFHGPTEH (domain or fragment) [Strep-His-TEV-HaloTag-3C-human γTuNA I67A/L70A], in assay [2], the binding result is listed as “no binding (tested: 50 µM (monomer))”.
